Source: PubChem BioAssay AID623959 (National Center for Advancing Translational Sciences (NCATS), 2012)
The whole screen tested about 1,400 compounds, of which fewer than 10 were called active. Another 8% or so got no clear call; they are omitted. The call rests on the fitted dose curve; in most records, active means well fitted curve in the direction sought with a large enough effect; inconclusive means small, poorly fitted or top-dose-only effect, or another doubt; inactive means no such curve, though single readings can be large or run the other way. Some of the results follow.

Sequences of proteins named here, by UniProt entry; tags and fusion partners are left off.
UniProt Q8NER1, whole entry, looked up: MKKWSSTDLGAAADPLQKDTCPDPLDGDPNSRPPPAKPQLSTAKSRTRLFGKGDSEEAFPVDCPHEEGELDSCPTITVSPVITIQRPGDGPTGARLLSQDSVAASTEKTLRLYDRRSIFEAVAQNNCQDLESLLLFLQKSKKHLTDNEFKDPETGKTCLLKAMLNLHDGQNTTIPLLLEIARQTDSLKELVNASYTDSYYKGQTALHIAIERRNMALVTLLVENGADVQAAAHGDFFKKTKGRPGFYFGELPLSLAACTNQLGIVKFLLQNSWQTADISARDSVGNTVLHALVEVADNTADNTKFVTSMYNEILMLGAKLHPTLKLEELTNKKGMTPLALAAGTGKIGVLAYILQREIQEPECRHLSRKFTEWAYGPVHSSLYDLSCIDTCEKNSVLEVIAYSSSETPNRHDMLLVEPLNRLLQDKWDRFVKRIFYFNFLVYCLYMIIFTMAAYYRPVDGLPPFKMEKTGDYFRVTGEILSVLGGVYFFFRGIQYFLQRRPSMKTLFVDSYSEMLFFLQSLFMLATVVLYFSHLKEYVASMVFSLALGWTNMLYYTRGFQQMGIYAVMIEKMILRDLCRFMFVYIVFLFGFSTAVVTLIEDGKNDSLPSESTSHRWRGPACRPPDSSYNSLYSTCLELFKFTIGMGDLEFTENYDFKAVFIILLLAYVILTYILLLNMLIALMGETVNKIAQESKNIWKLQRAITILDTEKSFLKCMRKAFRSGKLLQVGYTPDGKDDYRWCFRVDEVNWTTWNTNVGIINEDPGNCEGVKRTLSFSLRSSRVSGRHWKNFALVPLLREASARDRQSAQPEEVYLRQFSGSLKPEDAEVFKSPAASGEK

biological target: Transient receptor potential cation channel subfamily V member 1 (Homo sapiens) (UniProt Q8NER1); assay: qHTS Assay for Compounds that Act as Potentiators of the Vanilloid Receptor 1: Hit Validation; conditions: TRPV1-expressing cells, Fluo-8 calcium influx, capsaicin EC20; series mostly up to 42.1 µM; activity change, positive = potentiation: at the top concentration; on activity change, positive = potentiation: % of control where 0% means no effect
Outline: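 Calcium influx via Fluo-8 fluorescence (480/520 nm) on FDSS: 10 s baseline, 3 min compound read, 2 min read after EC20 capsaicin. TRPV1-expressing cells plated 2000/well, grown overnight at 35.5 °C.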
Potency means the concentration at half of the fitted maximal effect.

Row | Structure (SMILES) | activity change, positive = potentiation | Potency
1 | CC1CCCN(c2ccc(C(=O)Nc3cccnc3)cc2[N+](=O)[O-])C1 (configuration not stated) | inactive: -39.7% | 
2 | NNC(=O)C1COc2cc3ccccc3cc2O1 (configuration not stated) | inactive: -31.3% | 
3 | CC(=O)c1ccc(NC(=O)N2CCN(c3ccc(C)cc3)C(C)C2)cc1 (configuration not stated) | inactive: -39.5% | 
4 | OCC1(CCc2ccccc2)CCCN(C/C=C/c2ccccc2)C1 (configuration not stated) | inactive: -14.6% | 
5 | COc1ccc(CC(=O)Nc2ccc(S(=O)(=O)N3CCCCC3)cc2)cc1OC | inactive: -36.2% | 
6 | CCOC(=O)c1sc(NC(=O)CN2CC(C)OC(C)C2)nc1C (configuration not stated) | inactive: -7.7% | 
7 | CCCn1c(SC(C)C(=O)N2CCOCC2)nc2ccc(Br)cc2c1=O (configuration not stated) | inactive: -38.5% | 
8 | N#Cc1cc(C(=O)c2cc(Cl)ccc2O)cn(CC2CCCO2)c1=O (configuration not stated) | inactive: -5.19% | 
9 | Cc1ccccc1C(=O)NCCCNC(=O)c1ccccn1 | inactive: -5.24% | 
10 | N#Cc1c(-c2ccccc2)cc(-c2ccccc2)nc1SCCC(=O)O | inactive: 1% | 
11 | COc1ccc(-n2nc(C(=O)O)cc2-c2ccccc2)cc1 | inactive: 4.13% | 
12 | c1ccc(-n2ncc3c(NCc4ccc5c(c4)OCO5)ncnc32)cc1 | inactive: -4.32% | 
13 | O=C(Nc1ccc(S(=O)(=O)Nc2ccccn2)cc1)c1cccc([N+](=O)[O-])c1 | inactive: 0.669% | 
14 | CCOC(=O)N1CCN(C(=O)C2CC(c3cc(OC)ccc3OC)=NO2)CC1 (configuration not stated) | inactive: 5.66% | 
15 | C=CCNc1oc(-c2ccc(OC)cc2)nc1C#N | inactive: 13.8% | 
16 | CN(C(=O)CSc1nc(C2CC2)nc2ccccc12)c1nc(-c2ccccc2)cs1 | inactive: -5.26% | 
17 | COc1ccc(CC(=O)Nc2oc(-c3ccccc3)c(-c3ccccc3)c2C#N)cc1OC | inactive: -38.8% | 
18 | COc1ccccc1N1CCN(C(=O)c2cc(C(C)(C)C)oc2C)CC1 | inactive: -23.9% | 
19 | COc1ccc(NC(=O)CSc2nnc(CNC(=O)c3ccco3)o2)cc1 | inactive: -25% | 
20 | COc1ccc(C(=O)N/N=C/c2ccc(OC)c(CSc3ccccn3)c2)cc1 | inactive: 6.12% | 
21 | Cn1c(=O)c2c(nc(N3CCOCC3)n2CCc2ccccc2)n(C)c1=O | inactive: -5.97% | 
22 | O=C(Nc1ccccc1)N1CCCN(c2nccc(C(F)(F)F)n2)CC1 | inactive: -36% | 

Reprinted, nos. 5 to 6
Row | Structure (SMILES) | activity change, positive = potentiation | Potency
5 | COc1ccc(CC(=O)Nc2ccc(S(=O)(=O)N3CCCCC3)cc2)cc1OC | inactive: -36.2% | 
6 | CCOC(=O)c1sc(NC(=O)CN2CC(C)OC(C)C2)nc1C (configuration not stated) | inactive: -7.7% | 

Next compounds.

Row | Structure (SMILES) | activity change, positive = potentiation | Potency
23 | N#Cc1ccsc1NC(=O)C1CCN(C(=O)c2ccc(Cl)cc2)CC1 | inactive: 4.76% | 
24 | Cn1c(-c2ccc(F)cc2)cc2onc(-c3ccccc3Cl)c2c1=O | inactive: -6.62% | 
25 | O=c1[nH]c(SCc2cccc(F)c2)nc2ccccc12 | inactive: 1.6% | 
26 | Cc1ccc(C(C)C)c(OCCSc2nc3ccccc3n2CC(=O)O)c1 | inactive: -4.84% | 
27 | O=C(Nc1ccccc1)Nc1nnc(SCc2ccc(Cl)cc2)s1 | inactive: 13.8% | 
28 | Cc1cccc(NC(=O)CS(=O)(=O)c2cn(C)c3ccccc23)c1 | inactive: -6.57% | 
29 | CCC1=C2CC[C@H]3C(=O)N(C)C(=O)[C@H]3[C@H]2[C@@]2(Cc3ccccc3)C(=NCCOC)OC(=O)N2C1=O | inactive: -11.5% | 
30 | O=S(=O)(c1ccccc1)N1CCN=C1SCc1ccccc1Cl | inactive: -0.824% | 
31 | O=[N+]([O-])c1ccc(O)c(/C=N/Nc2ccccc2[N+](=O)[O-])c1 | inactive: 8.79% | 
32 | COc1ccc(CNC(=O)C2CC(c3ccc(C(F)(F)F)cc3)=NO2)cc1 (configuration not stated) | inactive: -6.96% | 
33 | Cn1c(SC(C(=O)Nc2ccc(F)cc2)c2ccccc2)nc2ccccc21 (configuration not stated) | inactive: -37.9% | 
34 | COc1cc(N2Cc3ccccc3C2)ccc1C=O | inactive: -0.201% | 
35 | O=C(Nc1ccc(C(=O)N2CCC(O)(c3ccc(Cl)c(C(F)(F)F)c3)CC2)cc1)c1ccc(Br)o1 | inactive: 4.02% | 
36 | CCC(C(=O)OC)n1cnc2c(nnn2-c2cccc(OC)c2)c1=O (configuration not stated) | inactive: -7.38% | 
37 | N#Cc1cnn(-c2ccccc2)c1N | inactive: 1.83% | 
38 | O=[N+]([O-])c1ccccc1Nc1cccnc1 | inactive: -6.87% | 
39 | Cc1cc(C)cc(N(C(=O)CNS(=O)(=O)c2ccccc2)C(C(=O)NCc2ccccc2)c2ccc(C)o2)c1 (configuration not stated) | inactive: -7.44% | 
40 | COc1cc2cc(C)c3nnc(SCC(=O)Nc4cc(C)on4)n3c2cc1OC | inactive: -4.26% | 
41 | COc1ccc(C2/C=C\CN(C(=O)C3CCCC3)CC(=O)N2Cc2ccc(F)cc2)cc1 (configuration not stated) | inactive: -4.51% | 
42 | COc1ccccc1N1CCN(C(=O)Cc2c(C(=O)O)[nH]c3ccc(Cl)cc23)CC1 | inactive: -5.3% | 
43 | CSCCCN1CC[C@@H](N2CCN(c3ccccc3F)CC2)[C@H](O)C1 | inactive: 12.5% | 
44 | Cn1cnnc1SCC(=O)Nc1nc(-c2ccccc2)cs1 | inactive: -1.61% | 

Row | Structure (SMILES) | activity change, positive = potentiation | Potency
45 | CCN1C(=O)[C@@H]2[C@H](C1=O)[C@@H]1C(=O)Nc3ccccc3C(=O)N1[C@@H]2c1ccc(Br)cc1 | inactive: 2.73% | 
46 | O=C(COC(=O)C1=COCCO1)NC1CCCCC1 | inactive: -2.77% | 
47 | COc1ccc(-c2noc(C3CCCN(C(=O)c4ccc(F)cc4)C3)n2)cc1 (configuration not stated) | inactive: -1.43% | 
48 | CC(=O)Nc1ccc(/C=C(\C#N)C(N)=O)cc1 | inactive: -4.7% | 
49 | Cc1ccc(C(=O)NCCc2ccccc2)cc1 | inactive: -34.3% | 
50 | Oc1cccc(/C=N/Nc2cc(N3CCOCC3)nc(N3CCOCC3)n2)c1 | inactive: -33.3% | 
51 | CC(C)(C)c1cc(Cl)ccc1OCCn1ccnc1 | inactive: -37.7% | 
52 | Cc1ccc(NC(=O)c2ccc3c(c2)OCCO3)cc1C | inactive: -37.7% | 
53 | O=c1cc(-c2ccccc2)[nH]c2ccc(F)cc12 | inactive: -6.02% | 
54 | COc1cc(C(O)c2nc3ccccc3n2C(C)C)cc(OC)c1OC (configuration not stated) | inactive: -3.95% | 
55 | CCCC1(C(=O)OCC)NC(c2ccc(N(C)C)cc2)C2C(=O)N(c3ccc(F)cc3)C(=O)C21 (configuration not stated) | inactive: 4.32% | 
56 | Cc1oc(-c2cccs2)nc1CS(=O)CC(=O)NCCc1ccccc1 (configuration not stated) | inactive: -3.43% | 
57 | CCOc1ccc(S(=O)(=O)N2CCCCC2)cc1NC(=O)CN1C(=O)NC(C)(c2ccc(C)cc2)C1=O (configuration not stated) | inactive: -6.38% | 
58 | CCOC(=O)C(C(=O)OCC)c1cc(Br)c2noc3c2c1C(=O)c1ccccc1-3 |  | active: 3.6 µM
59 | O=C(Nc1ccc(N2CCCCCC2)cc1)c1cccc(S(=O)(=O)N2CCOCC2)c1 | inactive: -37.4% | 
60 | CC(C)c1ccc(CNNC(=O)c2ccccc2)cc1 | inactive: -36.7% | 
61 | Cc1ccc(C2=NS(=O)(=O)N(C)C(C(=O)NCc3cccs3)=C2)cc1 | inactive: -38.9% | 
62 | O=C(NNC(=O)c1cccc(O)c1)Nc1ccc([N+](=O)[O-])cc1 | inactive: 3.43% | 
63 | O=C(Nc1ccc(Cl)cc1)c1csc(-c2ccccc2)n1 | inactive: -37.6% | 
64 | Cn1nc(C(C)(C)C)cc1C(=O)NCc1ccc(N2CCCC2=O)cc1 | inactive: -1.47% | 
65 | Cc1cccnc1NC(N)=S | inactive: -7.17% | 
66 | O=C(CCNS(=O)(=O)c1ccc(Br)s1)NCc1ccccc1Cl | inactive: -5.73% | 

Row | Structure (SMILES) | activity change, positive = potentiation | Potency
67 | O=C(CN1C(=O)C2CCCN2c2ncc(Cl)cc21)NCc1ccc2c(c1)OCO2 (configuration not stated) | inactive: -22.2% | 
68 | COc1ccc(NC(=O)c2ccc3ncsc3c2)c2ccccc12 | inactive: -37.3% | 
69 | COc1ccccc1NC(=O)CCc1nc(-c2ccccc2F)no1 | inactive: 1.7% | 
70 | CC(CN1CCCCC1)OC(=O)COc1ccc(Cl)cc1 (configuration not stated) | inactive: -13.3% | 
71 | Cc1ccc(CNC(=O)[C@H](C)N2C(=O)N3CCc4c([nH]c5ccccc45)[C@@]3(C)C2=O)cc1 | inactive: -1.45% | 
72 | CCn1cc(C2CC(=O)NC2=O)c2ccccc21 (configuration not stated) | inactive: -23.9% | 
73 | COc1ccc(NC(=O)c2ccsc2NC(C)=O)cc1 | inactive: -7.09% | 
74 | O=C(Nc1ccccc1)c1ccc(NC2CCCCC2)c(S(=O)(=O)N2CCOCC2)c1 | inactive: -38.1% | 
75 | CC(C)Nc1nnc(SCC(=O)c2c[nH]c3ccccc23)s1 | inactive: -5.56% | 
76 | CCc1ccc(NC(=O)CNCc2ccc(OC)c(OC)c2)cc1 | inactive: -34.2% | 
77 | CC(=O)Nc1ccc(N=Cc2c(O)ccc3ccccc23)cc1 | inactive: -28.1% | 
78 | Cc1[nH]c2ccccc2c1CCN(Cc1cccnc1)C(=S)Nc1ccc(F)cc1 | inactive: -6.06% | 
79 | O=C(Cc1nc2ccccc2[nH]1)c1ccc(Cl)cc1 | inactive: 3.7% | 
80 | CCOC(=O)c1ccc(NC(=O)Oc2cc(C)c(Cl)cc2C(C)C)cc1 | inactive: -7.93% | 
81 | COc1ccc(C(=O)NC(CC(C)C)C(=O)O)cc1OC (configuration not stated) | inactive: 3.51% | 
82 | COc1ccc(CNC(=O)COC(=O)c2cc(-c3cccs3)nc3ccccc23)cc1OC | inactive: -38% | 
83 | CC(=O)Oc1ccc(NC(=O)CCC2CCCCC2)c(C(=O)O)c1 | inactive: 6.93% | 
84 | Cc1ccc(NC(=O)N2CCCN(Cc3ccc(F)cc3)C2)cc1C | inactive: -6.13% | 
85 | COC(=O)c1ccc(-n2c(C)nc(=O)c(-c3ccccc3)c2C)cc1 | inactive: 8.04% | 
86 | Cc1ccc(OCCCCn2ccnc2C)c(C)c1 | inactive: -3.51% | 
87 | CCN1C(=O)[C@@H]2[C@@H](c3ccc(-c4ccc(F)cc4)cc3)N3CCCC[C@@]3(C(=O)OC)[C@@H]2C1=O | inactive: -8.18% | 
88 | COc1ccc(Nc2ncnc3c2oc2ccccc23)cc1 | inactive: -38.6% | 

Row | Structure (SMILES) | activity change, positive = potentiation | Potency
89 | O=C(CCc1ccccc1)N1CCCC(Nc2ccc(F)cc2)C1 (configuration not stated) | inactive: -39.1% | 
90 | O=C(CSc1nnc(CNc2ccc(Cl)cc2)o1)Nc1nc2c(s1)CCCC2 | inactive: 4.39% | 
91 | Cc1ccc(C)c(OCC(=O)Nc2ccc(N3CCOCC3)cc2)c1 | inactive: 9.59% | 
92 | COc1ccc(NC(=O)c2ccc3c(c2)N(C)CCS3)cc1 | inactive: -37.9% | 
93 | O=C(CSc1ccc(-c2ccccn2)nn1)NCc1ccccc1 | inactive: -0.0558% | 
94 | CSCCNC(=O)c1ccc2nc(C3CCCCC3)oc2c1 | inactive: -38.4% | 
95 | COc1ccc(NC2c3ccccc3C(=O)N2Cc2ccc3c(c2)OCO3)cc1 (configuration not stated) | inactive: -38.7% | 
96 | COC(=O)c1[nH]c2ccc(C)cc2c1NC(=O)CN1CCCC(C)(C)C1 | inactive: -38.2% | 
97 | O=C(Nc1cccnc1)c1ccc(N2CCCC2)c([N+](=O)[O-])c1 | inactive: -38.2% | 
98 | Cn1c(=O)c2c(nc3sccn32)n(C)c1=O | inactive: 2.52% | 
99 | COC(=O)[C@@H]1C[C@@]2(O)[C@@H](O)[C@@H](O)[C@@H](O)C[C@H]2N1Cc1ccc(Cl)cc1 | inactive: -4.11% | 
100 | Cc1nc2c(-c3ccccc3)c(C)[nH]n2c(=O)c1Cl | inactive: -11.9% | 
101 | CC(C)c1ccc(NC2CCCN(C(=O)c3ccco3)C2)cc1 (configuration not stated) | inactive: -14.5% [at 41.5 µM] | 
102 | CCOC(=O)[C@H]1[C@H]2COc3ccc(Cl)cc3[C@@H]2N2C(=O)c3ccc(C)cc3NC(=O)[C@@]12C | inactive: -38.4% | 
103 | C=CCN1c2ccccc2[C@]23C[C@@H](C(=O)OC)N(C(=O)c4ccc(Br)cc4)C2=NC(C(=O)OC)=C(C(=O)OC)[C@H]13 | inactive: -30.9% | 
104 | CC(NC(=O)c1ccc(N(C)C)cc1)C(c1cccs1)N1CCN(C)CC1 (configuration not stated) | inactive: 7.98% | 
105 | Cc1oc(C(C)(C)C)cc1C(=O)N1CCCC1C(=O)O (configuration not stated) | inactive: -8.94% | 
106 | CC(C)(C)c1cc(C(=O)Nc2ccc(F)cc2)n(Cc2ccc(F)cc2)n1 | inactive: -38.1% | 
107 | CC(=O)CC[C@@H](C)O[C@@H]1OC(C)[C@H](O)CC1O (some centres not stated) | inactive: -23.1% | 
